This is an account of results in US20030190671A1, “Use of metabolic phenotyping in individualized treatment with amonafide” (McGill University, priority 2001, published 2003).

The data set deals with 1X-Ab. Briefly: Competitive antigen ELISA, cross-reactivity of 1X-Ab. To be noted: for [1X] × 10^6 (M) determined by ELISA: fixed 1X concentration 3 × 10^−6 M, printed value = [1X] × 10^6; for apparent increase of 1X concentration: fixed 1X concentration 3×10^−6 M. The class given is binding, rabbit. On the procedure: Competitive Antigen ELISA
(§1) Buffers and water without additives are filtered through millipore filters and kept for 1 week. BSA, antibodies, Tween™ 20 and horse radish peroxidase conjugates are added to these buffers and water just prior to use. Urine samples are usually collected 4 hours after drinking a cup of coffee (instant or brewed with approximately 100 mg of caffeine per cup) and stored at −80° C. The urine samples are diluted 10 times with sodium phosphate buffer (620 mosm, pH 7.50) and are subsequently diluted with water to give concentrations of AAMU and 1X no higher than 3×10^−6 M in the ELISA. All the pipettings are done with an eight-channel pipette, except those of the antibody and sample solutions. Starting with the last well, 100 μL of a carbonate buffer (100 mM, pH 9.6) containing 2.5 μg mL-1 antibodies are added to each well. After 90 min. at room temperature, the wells are washed three times with 100 mL of TPB: isotonic sodium phosphate buffer (310 mosm, pH 7.50) containing 0.05% Tween™ 20.
After the initial wash, unoccupied sites are blocked by incubation for 90 min. at room temperature with 100 μL TBP containing 3% BSA. The wells are washed four times with 100 […] TPB. […] The microplate is gently shaken with an orbital shaker at room temperature for 3-4 hours. The wells are washed three times with 100 μL TPB containing 1% BSA and three times with water containing 0.05% Tween™ 20. To the washed plate is added 150 μL of a substrate buffer composed of citric acid (25 mM) and sodium phosphate dibasic buffer (50 mM, pH 5.0) containing 0.06% hydrogen peroxide and 0.04% o-phenylenediamine hydrochloride.
as §1, with “were” for “are”, “They were” for “The urine samples are”, “mL^−1” for “mL-1”, “was pipetted.” for “are added to each well.”, “μL” for “mL”
After the initial wash, unoccupied sites were blocked by incubation for 90 min. at room temperature with 100 μL TBP containing 3% BSA. The wells were washed four times with 100 μL TPB. […] The microplate was gently shaken with an orbital shaker at room temperature for 3-4 hours. The wells were washed three times with 100 μL with TPB containing 1% BSA and three times with water containing 0.05% Tween™ 20. To the washed plate was added 150 μL of a substrate buffer composed of citric acid (25 mM) and sodium phosphate dibasic buffer (50 mM, pH 5.0) containing 0.06% hydrogen peroxide and 0.04% o-phenylenediamine hydrochloride. After 20 min. at room temperature with shaking, the reaction was stopped with 50 μL of 2.5 N HCl.
The cross reactivities of AAMU-Ab and 1X-Ab were tested using a wide variety of caffeine metabolites and structural analogs (Table 2 below).

Take `Cn1c(=O)[nH]c2nc[nH]c2c1=O` [1-Methyl Xanthine (1X), 1-methylxanthine]: the “[1X] × 10^6 (M) determined by ELISA” value reads like this: (1U:1X ratio 0.0) 3.00 M; (1U:1X ratio 0.50) 2.75 M; (1U:1X ratio 1.00) 3.25 M; (1U:1X ratio 1.50) 3.25 M; (1U:1X ratio 2.00) 3.60 M; (1U:1X ratio 2.50) 3.65 M. Besides, the “[1X] × 10^6 (M) determined by ELISA” value turned out to be 3.95 M (1U:1X ratio 3.00); 4.20 M (1U:1X ratio 4.00); 4.30 M (1U:1X ratio 5.00); 4.50 M (1U:1X ratio 6.00); 4.30 M (1U:1X ratio 8.00). In addition, the “apparent increase of 1X concentration” value runs as follows: (1U:1X ratio 2.5) 22%; (1U:1X ratio 3.0) 32%.
